Among the data in the supplement of paper PMC11659162 are ACBP immunofluorescence intensity values, retold here.

± gives the standard deviation of the averaged measurements. The list shows a part of the results. This is a noisy data set.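 The cells are a human neuroglioma line carrying a green fluorescent autophagy reporter.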

One experiment deals with H4 GFP-LC3. Briefly: ACBP immunofluorescence intensity (scaled to control) (AU (scaled)); higher = more intracellular ACBP/DBI. Particulars: 6 h.
Consider `CN1CCC[C@H]1c1cccnc1` (5 µM), for which the ACBP immunofluorescence intensity was determined as 0.92.

In the case of `O=C(NCCNN1CCCCC1)c1ccc(I)cc1` (5 µM), the ACBP immunofluorescence intensity came out at 0.877.

The molecule `Clc1ccccc1CN1CCc2sccc2C1` (5 µM) gave an ACBP immunofluorescence intensity of 1.

The molecule `CC(C)C[C@H](NC(=O)[C@H](Cc1c[nH]c2ccccc12)NC(=O)[C@@H]1CCCN1C(=O)CNC(=O)[C@@H]1CCC(=O)N1)C(=O)N[C@@H](CCC(=O)O)C(=O)N[C@@H](CCC(=O)O)C(=O)N[C@@H](CCC(=O)O)C(=O)N[C@@H](CCC(=O)O)C(=O)N[C@@H](CCC(=O)O)C(=O)N[C@@H](C)C(=O)N[C@@H](CC1=CC=C(O)CC1)C(=O)NCC(=O)N[C@@H](Cc1c[nH]c2ccccc12)C(=O)O` (5 µM) showed an ACBP immunofluorescence intensity of 0.349.

For `COC(=O)[C@H]1[C@H]2C[C@H]3c4[nH]c5ccccc5c4CCN3C[C@@H]2CC[C@@H]1O` (5 µM), the ACBP immunofluorescence intensity worked out at 0.923.

For `CC[N+](CC)(CC)CCOc1ccc(/C=C/c2ccccc2)cc1` (5 µM), the ACBP immunofluorescence intensity is 0.844.

In turn, `CC(C)(C)NC[C@H](O)COc1nsnc1N1CCOCC1` (5 µM) came in with an ACBP immunofluorescence intensity of 0.816.

Consider `O=C(O)[C@H]1CN[C@H](C(=O)O)C1` (5 µM), for which the ACBP immunofluorescence intensity came to 0.815.

In turn, `CC(C)C[C@H](NC(=O)[C@H](CCCCN)NC(=O)[C@H](CCCNC(=N)N)NC(=O)[C@H](C)NC(=O)[C@H](CO)NC(=O)[C@H](CCCCN)NC(=O)[C@H](CCCNC(=N)N)NC(=O)[C@H](C)NC(=O)CNC(=O)[C@@H](NC(=O)[C@H](Cc1ccccc1)NC(=O)CNC(=O)CNC(=O)[C@@H](N)Cc1ccccc1)[C@@H](C)O)C(=O)N[C@@H](C)C(=O)N[C@@H](CC(N)=O)C(=O)N[C@@H](CCC(N)=O)C(=O)O` (5 µM) registered an ACBP immunofluorescence intensity of 0.691 ± 0.16.

In turn, `CNCC(O)c1ccc(O)c(O)c1` (racemic) (5 µM) showed an ACBP immunofluorescence intensity of 0.457.

`NCCc1c[nH]cn1` (5 µM) had an ACBP immunofluorescence intensity of 0.974.

The molecule `N[C@@H](CCC(=O)O)C(=O)O` (5 µM) yielded an ACBP immunofluorescence intensity of 0.687.

Turning to `Nc1ncnc2c1ncn2[C@@H]1O[C@H](COP(=O)(O)CP(=O)(O)OP(=O)(O)O)[C@@H](O)[C@H]1O` (5 µM), the ACBP immunofluorescence intensity turned out to be 1.

The molecule `C=CCn1c(=O)c2c(nc(-c3ccccc3)n2C)n(C)c1=O` (5 µM) had an ACBP immunofluorescence intensity of 0.956.

`O=C(Nc1cccc(C(=O)Nc2ccc(S(=O)(=O)O)c3cc(S(=O)(=O)O)cc(S(=O)(=O)O)c23)c1)Nc1cccc(C(=O)Nc2ccc(S(=O)(=O)O)c3cc(S(=O)(=O)O)cc(S(=O)(=O)O)c23)c1` (5 µM) yielded an ACBP immunofluorescence intensity of 0.996.

Consider `N[C@@H](Cc1cc(I)c(Oc2ccc(O)c(I)c2)c(I)c1)C(=O)O` [Triiodothyronine] (5 µM), for which the ACBP immunofluorescence intensity was determined as 0.483.

Regarding `Cn1c(=O)c2nc(C3CCCC3)[nH]c2n(C)c1=O` (5 µM), the ACBP immunofluorescence intensity is 1.

The molecule `N=C(N)c1ccc(OCCCCCOc2ccc(C(=N)N)cc2)cc1` (5 µM) displayed an ACBP immunofluorescence intensity of 0.809.

Molecule `CN1CCN(CCc2ccc(Cl)c(Cl)c2)CC1` (5 µM) came in with an ACBP immunofluorescence intensity of 0.761.

`Cc1ccc(N(CC2=NCCN2)c2cccc(O)c2)cc1` (5 µM) yielded an ACBP immunofluorescence intensity of 0.864.

Take `C=CC(N)CCC(=O)O` (centres undefined) (5 µM): the ACBP immunofluorescence intensity is 0.8.

In the case of `CCN(Cc1ccncc1)C(=O)C(CO)c1ccccc1` (centres undefined) (5 µM), the ACBP immunofluorescence intensity amounted to 0.992.

Turning to `CC(C)(C)NCC(O)COc1cccc2[nH]c(=O)[nH]c12` (centres undefined) (5 µM), the ACBP immunofluorescence intensity was found to be 0.691.

For the molecule `N=C(N)NCCCCN` (5 µM), the ACBP immunofluorescence intensity is 0.64.

With `O=C(OCCN1CCCCC1)c1c[nH]c2ccccc12` (5 µM), the ACBP immunofluorescence intensity was 0.931.

Molecule `NC[C@@H]1O[C@H](c2ccccc2)Cc2c1ccc(O)c2O` (5 µM) showed an ACBP immunofluorescence intensity of 0.515.

`CN1CCc2cc(Cl)c(O)cc2[C@@H](c2ccccc2)C1` (5 µM): the ACBP immunofluorescence intensity was found to be 0.784.

The molecule `CC(C)(C)[C@@]1(O)CCN2C[C@@H]3c4ccccc4CCc4cccc(c43)[C@H]2C1` (5 µM) displayed an ACBP immunofluorescence intensity of 0.717.

The molecule `C[C@H](NC[C@H](O)CP(=O)(O)CC1CCCCC1)c1ccc(Cl)c(Cl)c1` (5 µM) gave an ACBP immunofluorescence intensity of 0.939.

For the molecule `Ic1ccc(N2CCN(Cc3c[nH]c4ncccc34)CC2)cc1` (5 µM), the ACBP immunofluorescence intensity amounted to 0.98.

For the molecule `COc1ccc2c3c1O[C@H]1C[C@@H](O)C=C[C@@]31CCN(C)C2` (5 µM), the ACBP immunofluorescence intensity is 0.963.

Molecule `Cn1c(=O)c2c(nc(C=Cc3cccc(Cl)c3)n2C)n(C)c1=O` (5 µM) returned an ACBP immunofluorescence intensity of 1.

For the molecule `CCCCCCN(CCCCCC)C(=O)Cc1c(-c2ccc(F)cc2)[nH]c2ccccc12` (5 µM), the ACBP immunofluorescence intensity was 0.994.

Molecule `CCN(CC)CCOC(=O)C1(c2ccc([N+](=O)[O-])cc2)CCCC1` (5 µM) gave an ACBP immunofluorescence intensity of 0.922.

The molecule `Cn1c(=O)c2c(ncn2C)n(C)c1=O` (5 µM) had an ACBP immunofluorescence intensity of 1.

`CCOC(=O)N1CCC(=C2c3ccc(Cl)cc3CCc3cccnc32)CC1` (5 µM) registered an ACBP immunofluorescence intensity of 0.947.

Molecule `CCNC(=O)N1CCN(CCCC(c2ccc(F)cc2)c2ccc(F)cc2)CC1` (5 µM) yielded an ACBP immunofluorescence intensity of 0.999.

Still in this experiment, the particulars now being: 24 h.
In the case of `CN1CCC[C@H]1c1cccnc1` (5 µM), the ACBP immunofluorescence intensity was 0.539.

The molecule `O=C(NCCNN1CCCCC1)c1ccc(I)cc1` (5 µM) yielded an ACBP immunofluorescence intensity of 0.803.

`Clc1ccccc1CN1CCc2sccc2C1` (5 µM) displayed an ACBP immunofluorescence intensity of 0.642.

In turn, `CC(C)C[C@H](NC(=O)[C@H](Cc1c[nH]c2ccccc12)NC(=O)[C@@H]1CCCN1C(=O)CNC(=O)[C@@H]1CCC(=O)N1)C(=O)N[C@@H](CCC(=O)O)C(=O)N[C@@H](CCC(=O)O)C(=O)N[C@@H](CCC(=O)O)C(=O)N[C@@H](CCC(=O)O)C(=O)N[C@@H](CCC(=O)O)C(=O)N[C@@H](C)C(=O)N[C@@H](CC1=CC=C(O)CC1)C(=O)NCC(=O)N[C@@H](Cc1c[nH]c2ccccc12)C(=O)O` (5 µM) showed an ACBP immunofluorescence intensity of 0.583.

The molecule `COC(=O)[C@H]1[C@H]2C[C@H]3c4[nH]c5ccccc5c4CCN3C[C@@H]2CC[C@@H]1O` (5 µM) yielded an ACBP immunofluorescence intensity of 0.488.

With `CC[N+](CC)(CC)CCOc1ccc(/C=C/c2ccccc2)cc1` (5 µM), the ACBP immunofluorescence intensity turned out to be 0.525.

`CC(C)(C)NC[C@H](O)COc1nsnc1N1CCOCC1` (5 µM) returned an ACBP immunofluorescence intensity of 0.497.

`O=C(O)[C@H]1CN[C@H](C(=O)O)C1` (5 µM) had an ACBP immunofluorescence intensity of 0.473.

For the molecule `CC(C)C[C@H](NC(=O)[C@H](CCCCN)NC(=O)[C@H](CCCNC(=N)N)NC(=O)[C@H](C)NC(=O)[C@H](CO)NC(=O)[C@H](CCCCN)NC(=O)[C@H](CCCNC(=N)N)NC(=O)[C@H](C)NC(=O)CNC(=O)[C@@H](NC(=O)[C@H](Cc1ccccc1)NC(=O)CNC(=O)CNC(=O)[C@@H](N)Cc1ccccc1)[C@@H](C)O)C(=O)N[C@@H](C)C(=O)N[C@@H](CC(N)=O)C(=O)N[C@@H](CCC(N)=O)C(=O)O` (5 µM), the ACBP immunofluorescence intensity was found to be 0.799 ± 0.14.

Turning to `CNCC(O)c1ccc(O)c(O)c1` (racemic) (5 µM), the ACBP immunofluorescence intensity stood at 0.736.

Turning to `NCCc1c[nH]cn1` (5 µM), the ACBP immunofluorescence intensity was 0.88.

With `N[C@@H](CCC(=O)O)C(=O)O` (5 µM), the ACBP immunofluorescence intensity turned out to be 0.585.

In the case of `Nc1ncnc2c1ncn2[C@@H]1O[C@H](COP(=O)(O)CP(=O)(O)OP(=O)(O)O)[C@@H](O)[C@H]1O` (5 µM), the ACBP immunofluorescence intensity was found to be 0.896.

Take `C=CCn1c(=O)c2c(nc(-c3ccccc3)n2C)n(C)c1=O` (5 µM): the ACBP immunofluorescence intensity was determined as 0.7.

With `O=C(Nc1cccc(C(=O)Nc2ccc(S(=O)(=O)O)c3cc(S(=O)(=O)O)cc(S(=O)(=O)O)c23)c1)Nc1cccc(C(=O)Nc2ccc(S(=O)(=O)O)c3cc(S(=O)(=O)O)cc(S(=O)(=O)O)c23)c1` (5 µM), the ACBP immunofluorescence intensity amounted to 0.626.

`N[C@@H](Cc1cc(I)c(Oc2ccc(O)c(I)c2)c(I)c1)C(=O)O` [Triiodothyronine] (5 µM) yielded an ACBP immunofluorescence intensity of 0.704.

The molecule `Cn1c(=O)c2nc(C3CCCC3)[nH]c2n(C)c1=O` (5 µM) yielded an ACBP immunofluorescence intensity of 0.883.

Consider `N=C(N)c1ccc(OCCCCCOc2ccc(C(=N)N)cc2)cc1` (5 µM), for which the ACBP immunofluorescence intensity worked out at 0.611.

For the molecule `CN1CCN(CCc2ccc(Cl)c(Cl)c2)CC1` (5 µM), the ACBP immunofluorescence intensity amounted to 0.605.

Molecule `Cc1ccc(N(CC2=NCCN2)c2cccc(O)c2)cc1` (5 µM) yielded an ACBP immunofluorescence intensity of 0.581.

Turning to `C=CC(N)CCC(=O)O` (centres undefined) (5 µM), the ACBP immunofluorescence intensity stood at 0.695.

Regarding `CCN(Cc1ccncc1)C(=O)C(CO)c1ccccc1` (centres undefined) (5 µM), the ACBP immunofluorescence intensity was 0.849.

`CC(C)(C)NCC(O)COc1cccc2[nH]c(=O)[nH]c12` (centres undefined) (5 µM) had an ACBP immunofluorescence intensity of 0.444.

`N=C(N)NCCCCN` (5 µM): the ACBP immunofluorescence intensity was 0.428.

`O=C(OCCN1CCCCC1)c1c[nH]c2ccccc12` (5 µM): the ACBP immunofluorescence intensity worked out at 0.463.

For the molecule `NC[C@@H]1O[C@H](c2ccccc2)Cc2c1ccc(O)c2O` (5 µM), the ACBP immunofluorescence intensity is 0.53.

`CN1CCc2cc(Cl)c(O)cc2[C@@H](c2ccccc2)C1` (5 µM) showed an ACBP immunofluorescence intensity of 0.644.

Molecule `CC(C)(C)[C@@]1(O)CCN2C[C@@H]3c4ccccc4CCc4cccc(c43)[C@H]2C1` (5 µM) returned an ACBP immunofluorescence intensity of 0.587.

With `C[C@H](NC[C@H](O)CP(=O)(O)CC1CCCCC1)c1ccc(Cl)c(Cl)c1` (5 µM), the ACBP immunofluorescence intensity is 0.471.

Consider `Ic1ccc(N2CCN(Cc3c[nH]c4ncccc34)CC2)cc1` (5 µM), for which the ACBP immunofluorescence intensity turned out to be 0.788.

For the molecule `COc1ccc2c3c1O[C@H]1C[C@@H](O)C=C[C@@]31CCN(C)C2` (5 µM), the ACBP immunofluorescence intensity was found to be 0.602.

In turn, `Cn1c(=O)c2c(nc(C=Cc3cccc(Cl)c3)n2C)n(C)c1=O` (5 µM) returned an ACBP immunofluorescence intensity of 0.903.

As for `CCCCCCN(CCCCCC)C(=O)Cc1c(-c2ccc(F)cc2)[nH]c2ccccc12` (5 µM), the ACBP immunofluorescence intensity came to 0.967.

Take `CCN(CC)CCOC(=O)C1(c2ccc([N+](=O)[O-])cc2)CCCC1` (5 µM): the ACBP immunofluorescence intensity was found to be 0.591.

As to `Cn1c(=O)c2c(ncn2C)n(C)c1=O` (5 µM), the ACBP immunofluorescence intensity stood at 0.896.

With `CCOC(=O)N1CCC(=C2c3ccc(Cl)cc3CCc3cccnc32)CC1` (5 µM), the ACBP immunofluorescence intensity was 0.759.

In turn, `CCNC(=O)N1CCN(CCCC(c2ccc(F)cc2)c2ccc(F)cc2)CC1` (5 µM) displayed an ACBP immunofluorescence intensity of 0.831.
